Results published in the supplement of paper PMC10849652.
This is one part of the list.

The chains behind the UniProt entries cited, without tags or fusion partners. Where a name states a change or a piece, a line headed by the entry shows the natural chain unless it says otherwise.
UniProt Q9ULV4, whole entry, looked up: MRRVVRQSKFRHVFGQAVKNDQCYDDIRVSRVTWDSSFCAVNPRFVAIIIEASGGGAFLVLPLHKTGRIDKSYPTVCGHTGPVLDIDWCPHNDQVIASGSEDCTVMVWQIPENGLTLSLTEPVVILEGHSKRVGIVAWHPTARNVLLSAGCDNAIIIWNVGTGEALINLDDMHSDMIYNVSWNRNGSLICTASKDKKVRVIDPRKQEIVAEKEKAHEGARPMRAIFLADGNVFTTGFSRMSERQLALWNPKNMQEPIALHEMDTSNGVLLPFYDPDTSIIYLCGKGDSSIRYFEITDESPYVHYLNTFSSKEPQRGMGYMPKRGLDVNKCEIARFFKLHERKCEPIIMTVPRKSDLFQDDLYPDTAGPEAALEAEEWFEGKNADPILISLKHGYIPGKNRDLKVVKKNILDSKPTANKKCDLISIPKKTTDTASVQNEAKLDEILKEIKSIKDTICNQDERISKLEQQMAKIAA
UniProt Q9H9Q2: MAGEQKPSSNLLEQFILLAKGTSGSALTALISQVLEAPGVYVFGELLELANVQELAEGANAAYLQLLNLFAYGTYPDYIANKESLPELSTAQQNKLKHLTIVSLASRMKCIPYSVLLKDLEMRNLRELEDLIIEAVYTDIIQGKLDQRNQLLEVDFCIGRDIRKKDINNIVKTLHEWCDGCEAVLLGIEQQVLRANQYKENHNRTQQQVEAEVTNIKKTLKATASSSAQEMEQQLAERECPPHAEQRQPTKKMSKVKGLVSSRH
UniProt Q9BT09: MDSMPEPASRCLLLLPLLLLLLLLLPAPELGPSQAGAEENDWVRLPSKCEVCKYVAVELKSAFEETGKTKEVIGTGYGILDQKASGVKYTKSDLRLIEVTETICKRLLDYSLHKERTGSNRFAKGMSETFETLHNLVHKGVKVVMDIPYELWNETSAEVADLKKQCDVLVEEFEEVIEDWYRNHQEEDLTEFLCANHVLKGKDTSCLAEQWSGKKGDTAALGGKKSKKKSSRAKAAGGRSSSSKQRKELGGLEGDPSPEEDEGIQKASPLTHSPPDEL
UniProt P39059: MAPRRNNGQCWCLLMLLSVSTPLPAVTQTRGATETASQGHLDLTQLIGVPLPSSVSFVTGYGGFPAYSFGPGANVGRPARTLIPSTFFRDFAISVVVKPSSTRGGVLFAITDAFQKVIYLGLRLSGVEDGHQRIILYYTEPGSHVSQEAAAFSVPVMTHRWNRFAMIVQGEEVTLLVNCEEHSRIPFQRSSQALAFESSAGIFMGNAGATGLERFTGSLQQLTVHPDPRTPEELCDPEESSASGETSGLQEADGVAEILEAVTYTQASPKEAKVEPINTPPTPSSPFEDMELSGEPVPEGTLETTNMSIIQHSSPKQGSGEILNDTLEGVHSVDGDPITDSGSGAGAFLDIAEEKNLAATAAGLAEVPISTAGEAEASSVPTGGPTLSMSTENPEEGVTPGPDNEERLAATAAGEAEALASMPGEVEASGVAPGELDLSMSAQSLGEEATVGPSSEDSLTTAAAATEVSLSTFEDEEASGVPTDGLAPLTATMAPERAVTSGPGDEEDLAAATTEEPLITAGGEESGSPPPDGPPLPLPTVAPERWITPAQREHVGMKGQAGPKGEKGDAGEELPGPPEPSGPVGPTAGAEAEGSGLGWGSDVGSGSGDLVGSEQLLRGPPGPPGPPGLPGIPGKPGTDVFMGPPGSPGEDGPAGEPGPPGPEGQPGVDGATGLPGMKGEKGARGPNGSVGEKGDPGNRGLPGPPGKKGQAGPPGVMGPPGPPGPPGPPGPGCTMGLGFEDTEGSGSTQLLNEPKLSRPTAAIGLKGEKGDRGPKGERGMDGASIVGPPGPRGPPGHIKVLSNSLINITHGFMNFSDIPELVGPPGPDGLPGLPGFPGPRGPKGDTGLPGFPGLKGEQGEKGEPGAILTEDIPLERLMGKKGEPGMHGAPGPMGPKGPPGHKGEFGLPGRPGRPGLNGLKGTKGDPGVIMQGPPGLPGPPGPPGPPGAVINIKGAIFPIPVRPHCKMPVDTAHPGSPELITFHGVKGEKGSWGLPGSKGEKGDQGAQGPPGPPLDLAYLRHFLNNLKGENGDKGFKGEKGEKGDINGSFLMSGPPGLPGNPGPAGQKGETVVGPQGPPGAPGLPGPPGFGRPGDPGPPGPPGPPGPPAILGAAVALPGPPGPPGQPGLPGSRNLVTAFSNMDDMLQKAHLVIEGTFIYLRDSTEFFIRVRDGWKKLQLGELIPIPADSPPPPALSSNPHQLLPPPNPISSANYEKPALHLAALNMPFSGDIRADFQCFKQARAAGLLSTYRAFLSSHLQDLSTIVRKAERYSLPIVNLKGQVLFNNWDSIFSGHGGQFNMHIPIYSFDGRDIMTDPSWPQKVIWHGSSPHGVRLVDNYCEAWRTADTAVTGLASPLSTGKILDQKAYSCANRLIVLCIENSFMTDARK
UniProt Q9UFF9, whole entry, looked up: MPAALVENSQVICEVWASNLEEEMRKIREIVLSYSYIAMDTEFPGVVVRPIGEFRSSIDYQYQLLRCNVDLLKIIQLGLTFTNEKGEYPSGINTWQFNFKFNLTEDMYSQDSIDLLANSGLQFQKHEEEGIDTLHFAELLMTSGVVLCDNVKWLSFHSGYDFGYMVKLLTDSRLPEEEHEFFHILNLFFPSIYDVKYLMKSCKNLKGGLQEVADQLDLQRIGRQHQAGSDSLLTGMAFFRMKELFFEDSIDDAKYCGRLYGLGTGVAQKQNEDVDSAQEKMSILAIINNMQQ
UniProt Q8N684: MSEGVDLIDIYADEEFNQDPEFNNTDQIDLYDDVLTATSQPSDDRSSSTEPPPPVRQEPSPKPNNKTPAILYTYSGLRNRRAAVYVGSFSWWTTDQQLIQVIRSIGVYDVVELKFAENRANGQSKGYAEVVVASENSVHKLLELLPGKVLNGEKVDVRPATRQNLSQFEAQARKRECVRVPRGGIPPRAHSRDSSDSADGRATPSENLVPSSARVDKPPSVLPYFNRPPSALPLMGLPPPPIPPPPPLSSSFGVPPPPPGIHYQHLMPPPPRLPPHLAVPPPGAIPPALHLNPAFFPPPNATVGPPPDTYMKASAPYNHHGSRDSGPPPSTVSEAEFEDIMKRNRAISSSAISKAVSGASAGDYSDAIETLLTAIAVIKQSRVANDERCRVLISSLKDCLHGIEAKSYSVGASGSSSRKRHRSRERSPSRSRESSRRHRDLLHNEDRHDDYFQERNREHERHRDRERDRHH
UniProt Q8N668, whole entry, looked up: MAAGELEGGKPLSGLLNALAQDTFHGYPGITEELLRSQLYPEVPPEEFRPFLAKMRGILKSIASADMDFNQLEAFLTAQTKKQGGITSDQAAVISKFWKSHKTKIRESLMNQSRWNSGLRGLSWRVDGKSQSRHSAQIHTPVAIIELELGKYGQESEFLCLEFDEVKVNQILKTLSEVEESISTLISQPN
UniProt Q9H0A8, whole entry, looked up: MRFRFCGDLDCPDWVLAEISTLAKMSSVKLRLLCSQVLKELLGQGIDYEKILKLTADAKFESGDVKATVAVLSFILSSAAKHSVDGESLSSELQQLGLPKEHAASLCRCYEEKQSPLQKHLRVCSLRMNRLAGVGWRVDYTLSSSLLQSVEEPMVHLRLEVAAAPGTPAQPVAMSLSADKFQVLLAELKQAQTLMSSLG
UniProt Q9Y2R0: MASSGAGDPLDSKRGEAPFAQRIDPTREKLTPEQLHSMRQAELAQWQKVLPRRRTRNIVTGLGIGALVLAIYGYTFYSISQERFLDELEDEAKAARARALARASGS
UniProt Q9P2I0: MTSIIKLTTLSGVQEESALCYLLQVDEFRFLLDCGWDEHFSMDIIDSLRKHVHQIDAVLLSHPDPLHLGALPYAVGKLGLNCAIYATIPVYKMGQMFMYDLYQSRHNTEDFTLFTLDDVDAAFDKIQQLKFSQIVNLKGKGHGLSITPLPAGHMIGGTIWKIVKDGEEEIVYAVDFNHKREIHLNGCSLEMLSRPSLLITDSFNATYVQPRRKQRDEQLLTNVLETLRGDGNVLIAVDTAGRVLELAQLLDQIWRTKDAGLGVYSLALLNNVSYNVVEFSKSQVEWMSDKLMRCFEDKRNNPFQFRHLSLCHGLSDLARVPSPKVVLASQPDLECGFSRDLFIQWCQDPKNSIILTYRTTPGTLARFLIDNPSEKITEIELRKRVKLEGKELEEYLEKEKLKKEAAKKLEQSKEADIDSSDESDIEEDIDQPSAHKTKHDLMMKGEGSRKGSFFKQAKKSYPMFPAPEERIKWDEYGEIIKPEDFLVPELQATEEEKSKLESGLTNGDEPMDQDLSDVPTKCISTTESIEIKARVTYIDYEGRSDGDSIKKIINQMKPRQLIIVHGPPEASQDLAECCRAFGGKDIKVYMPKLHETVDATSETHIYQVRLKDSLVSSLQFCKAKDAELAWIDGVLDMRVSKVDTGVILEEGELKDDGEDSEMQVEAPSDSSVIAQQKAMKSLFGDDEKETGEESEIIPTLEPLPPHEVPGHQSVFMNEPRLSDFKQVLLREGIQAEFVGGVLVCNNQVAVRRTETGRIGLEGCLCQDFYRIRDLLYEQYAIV
UniProt Q6PJW8: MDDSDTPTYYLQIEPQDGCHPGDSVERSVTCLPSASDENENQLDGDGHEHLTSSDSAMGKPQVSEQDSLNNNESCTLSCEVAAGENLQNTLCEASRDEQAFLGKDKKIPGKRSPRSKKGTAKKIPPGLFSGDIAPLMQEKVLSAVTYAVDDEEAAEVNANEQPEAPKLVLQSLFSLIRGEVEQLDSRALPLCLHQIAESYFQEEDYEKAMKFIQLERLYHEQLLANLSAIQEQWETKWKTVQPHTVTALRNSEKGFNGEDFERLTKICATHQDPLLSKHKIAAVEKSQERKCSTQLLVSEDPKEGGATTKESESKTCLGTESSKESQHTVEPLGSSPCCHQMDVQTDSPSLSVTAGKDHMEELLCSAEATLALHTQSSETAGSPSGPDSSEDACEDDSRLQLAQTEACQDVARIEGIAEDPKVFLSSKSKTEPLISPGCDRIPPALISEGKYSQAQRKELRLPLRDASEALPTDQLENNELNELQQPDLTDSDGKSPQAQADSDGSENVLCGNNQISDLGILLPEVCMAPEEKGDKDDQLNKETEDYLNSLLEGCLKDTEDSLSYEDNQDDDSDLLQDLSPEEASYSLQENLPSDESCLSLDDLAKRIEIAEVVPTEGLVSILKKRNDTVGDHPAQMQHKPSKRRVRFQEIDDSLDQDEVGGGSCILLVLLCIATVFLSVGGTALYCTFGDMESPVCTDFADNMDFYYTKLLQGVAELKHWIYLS
UniProt Q9Y678: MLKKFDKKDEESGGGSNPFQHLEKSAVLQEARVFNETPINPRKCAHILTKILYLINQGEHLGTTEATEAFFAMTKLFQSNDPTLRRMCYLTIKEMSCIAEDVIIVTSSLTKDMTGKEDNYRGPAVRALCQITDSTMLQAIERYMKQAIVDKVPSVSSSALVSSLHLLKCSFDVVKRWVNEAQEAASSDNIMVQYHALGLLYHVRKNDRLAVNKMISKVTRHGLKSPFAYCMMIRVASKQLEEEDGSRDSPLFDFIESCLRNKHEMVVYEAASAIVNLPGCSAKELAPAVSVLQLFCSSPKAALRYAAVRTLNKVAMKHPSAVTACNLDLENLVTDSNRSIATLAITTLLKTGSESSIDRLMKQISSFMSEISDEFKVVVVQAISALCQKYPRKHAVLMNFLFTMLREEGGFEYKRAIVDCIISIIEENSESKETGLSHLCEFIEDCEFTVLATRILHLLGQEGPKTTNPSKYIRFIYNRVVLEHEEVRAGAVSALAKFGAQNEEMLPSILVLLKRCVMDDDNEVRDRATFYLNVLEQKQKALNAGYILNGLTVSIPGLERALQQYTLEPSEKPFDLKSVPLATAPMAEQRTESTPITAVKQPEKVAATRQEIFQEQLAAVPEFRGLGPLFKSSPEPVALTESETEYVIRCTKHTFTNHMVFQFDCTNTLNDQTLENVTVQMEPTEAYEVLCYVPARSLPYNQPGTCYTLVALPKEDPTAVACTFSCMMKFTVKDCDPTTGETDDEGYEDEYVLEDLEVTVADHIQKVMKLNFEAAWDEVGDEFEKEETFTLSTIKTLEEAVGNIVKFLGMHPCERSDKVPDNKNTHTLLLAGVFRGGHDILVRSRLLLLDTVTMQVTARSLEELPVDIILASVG
UniProt P09669, whole entry, looked up: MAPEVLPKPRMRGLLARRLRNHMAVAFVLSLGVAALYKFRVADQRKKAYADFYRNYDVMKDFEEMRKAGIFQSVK
UniProt P14854, whole entry, looked up: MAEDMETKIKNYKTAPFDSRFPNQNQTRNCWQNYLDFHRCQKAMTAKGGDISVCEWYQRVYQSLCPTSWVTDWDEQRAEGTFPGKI
UniProt Q8N8Q8: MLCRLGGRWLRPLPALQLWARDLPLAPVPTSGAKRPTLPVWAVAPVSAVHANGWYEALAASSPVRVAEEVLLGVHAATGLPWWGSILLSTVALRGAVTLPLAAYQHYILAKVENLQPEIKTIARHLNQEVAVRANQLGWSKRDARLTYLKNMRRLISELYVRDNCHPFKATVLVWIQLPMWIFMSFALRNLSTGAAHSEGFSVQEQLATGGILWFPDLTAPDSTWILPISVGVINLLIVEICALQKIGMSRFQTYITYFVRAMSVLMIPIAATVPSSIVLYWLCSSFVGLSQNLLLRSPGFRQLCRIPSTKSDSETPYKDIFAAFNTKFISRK

Key:
Experiment in all cases: log2 fold change, soluble protein after heating vs DMSO (PISA); higher = thermal stabilisation; K562 lysate, 10 uM; active = over 0.2 and 3.5 SD of the protein, either way, in both replicates (recomputed)
nilotinib = compound: Cc1cn(-c2cc(NC(=O)c3ccc(C)c(Nc4nccc(-c5cccnc5)n4)c3)cc(C(F)(F)F)c2)cn1 [nilotinib]
Outline: (§1)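 Thermal stability, expressed as log-two fold change relative to solvent controls, is given from duplicates. Crude K562 extract in PBS pH 7.4 with 1 mM MgCl2, at 1 mg/mL protein, was treated with 10 μM compound for 30 min and heated in aliquots for 3 min across 48°C-58°C. After pooling, adjustment to 0.5% NP-40 at 4°C and centrifugation at 21,000xg for 90 min, supernatant protein was measured by TMTpro 16plex LC-MS/MS with channel sums equalised.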

[1] = compound: Cc1nc(Nc2n[nH]c3c2CN(C(=O)N[C@H](CN(C)C)c2ccccc2)C3(C)C)c2sccc2n1
Outline: as §1

dasatinib = compound: Cc1nc(Nc2ncc(C(=O)Nc3c(C)cccc3Cl)s2)cc(N2CCN(CCO)CC2)n1 [dasatinib]
Outline: as §1

[2] = compound: Cc1ncc(-c2ccnc(Nc3ccc(S(C)(=O)=O)cc3)n2)n1C(C)C
Outline: as §1

[3] = compound: Cn1cc(-c2ccc3c(c2)CCN3C(=O)Cc2cccc(C(F)(F)F)c2)c2c(N)ncnc21
Outline: as §1

quisinostat = compound: Cn1cc(CNCC2CCN(c3ncc(C(=O)NO)cn3)CC2)c2ccccc21 [quisinostat]
Outline: as §1

tipifarnib = compound: Cn1cncc1[C@@](N)(c1ccc(Cl)cc1)c1ccc2c(c1)c(-c1cccc(Cl)c1)cc(=O)n2C [tipifarnib]
Outline: as §1

[4] = compound: NC(=O)Nc1cc(-c2cccc(F)c2)sc1C(=O)N[C@H]1CCCNC1
Outline: as §1

[5] = compound: NC(=O)c1cnc(N[C@@H]2CCCC[C@@H]2N)nc1Nc1cccc(-n2nccn2)c1
Outline: as §1

[6] = compound: NC1(c2ccc(-c3nc4ccn5c(=O)[nH]nc5c4cc3-c3ccccc3)cc2)CCC1
Outline: as §1

[7] = compound: NCC(=O)Nc1ccc(-n2nc(C(F)(F)F)cc2-c2ccc3c(ccc4ccccc43)c2)cc1
Outline: as §1

vorinostat = compound: O=C(CCCCCCC(=O)Nc1ccccc1)NO [vorinostat]
Outline: as §1

silmitasertib = compound: O=C(O)c1ccc2c(c1)nc(Nc1cccc(Cl)c1)c1ccncc12 [silmitasertib]
Outline: as §1

[8] = compound: O=C1NC(=O)C(c2cnc3ccccn23)=C1c1cn2c3c(cc(F)cc13)CN(C(=O)N1CCCCC1)CC2
Outline: as §1

entospletinib = compound: c1cn2cc(-c3ccc4cn[nH]c4c3)nc(Nc3ccc(N4CCOCC4)cc3)c2n1 [entospletinib]
Outline: as §1

Measured: log2 fold change

CORO1C isoform 3 (UniProt Q9ULV4)
inactive: nilotinib -0.011 | [1] 0.008 | dasatinib 0.019 | [2] -0.002 | [3] -0.016 | quisinostat -0.011 | tipifarnib 0.014 | [4] -0.029 | [5] -0.016 | [6] -0.01 | [7] 0.003 | vorinostat -0.099 | silmitasertib 0.015 | [8] -0.01 | entospletinib -0.013

COPS7B (UniProt Q9H9Q2)
inactive: nilotinib -0.057 | [1] 0.025 | dasatinib -0.014 | [2] 0.097 | [3] -0.03 | quisinostat -0.017 | tipifarnib 0.104 | [4] -0.021 | [5] 0.019 | [6] -0.021 | [7] -0.023 | vorinostat 0.105 | silmitasertib -0.056 | [8] -0.007 | entospletinib -0.042

CNPY3 (UniProt Q9BT09)
inactive: nilotinib -0.124 | [1] -0.044 | dasatinib 0.027 | [2] -0.117 | [3] -0.03 | quisinostat 0.033 | tipifarnib -0.006 | [4] -0.006 | [5] -0.001 | [6] 0.012 | [7] -0.072 | vorinostat 0.035 | silmitasertib 0.045 | [8] -0.004 | entospletinib 0.024

COL18A1 (UniProt P39060)
inactive: nilotinib 0.008 | [1] 0.001 | dasatinib 0.024 | [2] -0.084 | [3] -0.043 | quisinostat 0.031 | tipifarnib -0.031 | [4] -0.043 | [5] 0.024 | [6] 0.019 | [7] -0.147 | vorinostat 0.134 | silmitasertib 0.015 | [8] -0.018 | entospletinib 0.027

Looked up one by one from the list above (two):
COL18A1 (UniProt P39060)
inactive: nilotinib 0.008 | [1] 0.001 | dasatinib 0.024 | [2] -0.084 | [3] -0.043 | quisinostat 0.031 | tipifarnib -0.031 | [4] -0.043 | [5] 0.024 | [6] 0.019 | [7] -0.147 | vorinostat 0.134 | silmitasertib 0.015 | [8] -0.018 | entospletinib 0.027

CORO1C isoform 3 (UniProt Q9ULV4)
inactive: nilotinib -0.011 | [1] 0.008 | dasatinib 0.019 | [2] -0.002 | [3] -0.016 | quisinostat -0.011 | tipifarnib 0.014 | [4] -0.029 | [5] -0.016 | [6] -0.01 | [7] 0.003 | vorinostat -0.099 | silmitasertib 0.015 | [8] -0.01 | entospletinib -0.013

Continuation.

COL15A1 (UniProt P39059)
inactive: nilotinib 0.063 | [1] 0.018 | dasatinib 0.063 | [2] -0.026 | [3] 0.008 | quisinostat 0.007 | tipifarnib -0.046 | [4] 0.009 | [5] 0.023 | [6] -0.068 | [7] -0.062 | vorinostat 0.051 | silmitasertib -0.082 | [8] 0.006 | entospletinib 0.125

CNOT8 (UniProt Q9UFF9)
inactive: nilotinib 0.018 | [1] -0.065 | dasatinib -0.189 | [2] 0.002 | [3] -0.023 | quisinostat -0.037 | tipifarnib -0.002 | [4] 0.051 | [5] 0.055 | [6] -0.013 | [7] 0.013 | vorinostat -0.093 | silmitasertib 0.043 | [8] -0.034 | entospletinib -0.017

COLGALT2 (UniProt Q8IYK4)
inactive: nilotinib 0.005 | [1] -0.012 | dasatinib 0.002 | [2] -0.014 | [3] 0.037 | quisinostat 0.028 | tipifarnib -0.001 | [4] 0.005 | [5] -0.008 | [6] -0.021 | [7] -0.012 | vorinostat 0.015 | silmitasertib 0.01 | [8] -0.06 | entospletinib -0.006

CNOT7 (UniProt Q9UIV1)
inactive: nilotinib 0.001 | [1] -0.009 | dasatinib -0.005 | [2] 0.009 | [3] 0.024 | quisinostat 0.008 | tipifarnib -0.045 | [4] 0.013 | [5] 0.014 | [6] 0.002 | [7] 0.012 | vorinostat -0.17 | silmitasertib -0.019 | [8] 0.028 | entospletinib 0.003

CPSF7 isoform 3 (UniProt Q8N684)
inactive: nilotinib -0.009 | [1] -0.008 | dasatinib -0.056 | [2] -0.056 | [3] 0.013 | quisinostat 0.018 | tipifarnib 0.011 | [4] -0.028 | [5] 0.01 | [6] 0.032 | [7] 0.006 | vorinostat -0.001 | silmitasertib -0.01 | [8] -0.04 | entospletinib 0.015

COMMD1 (UniProt Q8N668)
inactive: nilotinib 0.042 | [1] -0.016 | dasatinib -0.057 | [2] 0.038 | [3] 0.023 | quisinostat -0.018 | tipifarnib 0.093 | [4] 0.012 | [5] 0.009 | [6] -0.039 | [7] 0.012 | vorinostat -0.052 | silmitasertib 0.019 | [8] -0.034 | entospletinib 0.048

COMMD4 (UniProt Q9H0A8)
inactive: nilotinib -0.025 | [1] 0.017 | dasatinib -0.078 | [2] 0.054 | [3] 0.048 | quisinostat -0.043 | tipifarnib 0 | [4] 0.012 | [5] -0.03 | [6] 0 | [7] -0.005 | vorinostat -0.17 | silmitasertib 0.064 | [8] -0.054 | entospletinib 0.028

COA3 (UniProt Q9Y2R0)
inactive: nilotinib 0.047 | [1] 0.026 | dasatinib 0.015 | [2] 0.007 | [3] -0.018 | quisinostat 0.002 | tipifarnib 0.029 | [4] -0.011 | [5] 0.017 | [6] 0.003 | [7] -0.018 | vorinostat 0.094 | silmitasertib -0.02 | [8] -0.007 | entospletinib -0.104

CPSF2 (UniProt Q9P2I0)
inactive: nilotinib -0.032 | [1] 0.035 | dasatinib -0.02 | [2] 0.016 | [3] 0.023 | quisinostat 0 | tipifarnib -0.016 | [4] 0.032 | [5] 0.015 | [6] -0.022 | [7] -0.001 | vorinostat -0.123 | silmitasertib -0.004 | [8] -0.01 | entospletinib -0.009

CNST (UniProt Q6PJW8)
inactive: nilotinib 0.125 | [1] 0.029 | dasatinib 0.023 | [2] -0.123 | [3] 0 | quisinostat -0.005 | tipifarnib 0.054 | [4] -0.002 | [5] 0 | [6] 0.041 | [7] 0.051 | vorinostat 0.056 | silmitasertib -0.028 | [8] -0.067 | entospletinib -0.024

COPG1 (UniProt Q9Y678)
inactive: nilotinib 0 | [1] -0.003 | dasatinib -0.01 | [2] 0.008 | [3] 0.009 | quisinostat 0.003 | tipifarnib -0.003 | [4] -0.017 | [5] -0.002 | [6] -0.003 | [7] 0.016 | vorinostat 0.033 | silmitasertib 0.006 | [8] 0.006 | entospletinib 0.02

COPS7B isoform 3 (UniProt Q9H9Q2)
inactive: nilotinib 0.062 | [1] 0.018 | dasatinib -0.011 | [2] -0.017 | [3] -0.018 | quisinostat 0.039 | tipifarnib -0.033 | [4] -0.034 | [5] -0.042 | [6] -0.027 | [7] 0.144 | vorinostat 0.065 | silmitasertib -0.003 | [8] 0.076 | entospletinib -0.017

COX6C (UniProt P09669)
inactive: nilotinib 0.031 | [1] 0 | dasatinib -0.007 | [2] 0.012 | [3] -0.014 | quisinostat 0.105 | tipifarnib 0.02 | [4] -0.015 | [5] -0.037 | [6] 0.016 | [7] 0.031 | vorinostat 0.11 | silmitasertib -0.02 | [8] 0.003 | entospletinib 0.016

COX6B1 (UniProt P14854)
inactive: nilotinib 0.04 | [1] 0.007 | dasatinib 0.105 | [2] 0.029 | [3] 0.003 | quisinostat -0.017 | tipifarnib 0.031 | [4] -0.084 | [5] -0.031 | [6] 0.075 | [7] -0.156 | vorinostat -0.19 | silmitasertib -0.004 | [8] -0.008 | entospletinib -0.026

COX18 (UniProt Q8N8Q8)
inactive: nilotinib -0.007 | [1] 0.01 | dasatinib -0.015 | [2] 0.016 | [3] -0.049 | quisinostat -0.031 | tipifarnib -0.029 | [4] 0.003 | [5] -0.002 | [6] -0.05 | [7] 0.019 | vorinostat 0.079 | silmitasertib -0.006 | [8] -0.003 | entospletinib -0.135

COPS4 (UniProt Q9BT78)
inactive: nilotinib 0.016 | [1] 0.001 | dasatinib 0.002 | [2] -0.01 | [3] 0 | quisinostat 0.074 | tipifarnib 0.008 | [4] -0.01 | [5] 0.013 | [6] 0.024 | [7] -0.036 | vorinostat 0.072 | silmitasertib 0.012 | [8] 0.005 | entospletinib 0.006
